The chains behind the UniProt entries cited, without tags or fusion partners.
UniProt P98170: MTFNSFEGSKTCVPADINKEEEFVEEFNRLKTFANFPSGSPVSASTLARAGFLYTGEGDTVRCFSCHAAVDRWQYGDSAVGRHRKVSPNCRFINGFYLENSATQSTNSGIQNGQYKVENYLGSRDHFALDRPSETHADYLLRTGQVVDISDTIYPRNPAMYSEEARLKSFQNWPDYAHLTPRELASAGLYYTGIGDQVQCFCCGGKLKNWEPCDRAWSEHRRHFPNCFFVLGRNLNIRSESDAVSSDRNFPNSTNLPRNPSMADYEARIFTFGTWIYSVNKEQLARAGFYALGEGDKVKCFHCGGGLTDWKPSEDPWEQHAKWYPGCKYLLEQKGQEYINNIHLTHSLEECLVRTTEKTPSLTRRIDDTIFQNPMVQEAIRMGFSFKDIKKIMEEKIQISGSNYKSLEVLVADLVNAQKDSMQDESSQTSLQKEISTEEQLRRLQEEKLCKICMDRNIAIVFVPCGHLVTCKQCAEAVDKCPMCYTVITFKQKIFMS
UniProt Q9UKA4: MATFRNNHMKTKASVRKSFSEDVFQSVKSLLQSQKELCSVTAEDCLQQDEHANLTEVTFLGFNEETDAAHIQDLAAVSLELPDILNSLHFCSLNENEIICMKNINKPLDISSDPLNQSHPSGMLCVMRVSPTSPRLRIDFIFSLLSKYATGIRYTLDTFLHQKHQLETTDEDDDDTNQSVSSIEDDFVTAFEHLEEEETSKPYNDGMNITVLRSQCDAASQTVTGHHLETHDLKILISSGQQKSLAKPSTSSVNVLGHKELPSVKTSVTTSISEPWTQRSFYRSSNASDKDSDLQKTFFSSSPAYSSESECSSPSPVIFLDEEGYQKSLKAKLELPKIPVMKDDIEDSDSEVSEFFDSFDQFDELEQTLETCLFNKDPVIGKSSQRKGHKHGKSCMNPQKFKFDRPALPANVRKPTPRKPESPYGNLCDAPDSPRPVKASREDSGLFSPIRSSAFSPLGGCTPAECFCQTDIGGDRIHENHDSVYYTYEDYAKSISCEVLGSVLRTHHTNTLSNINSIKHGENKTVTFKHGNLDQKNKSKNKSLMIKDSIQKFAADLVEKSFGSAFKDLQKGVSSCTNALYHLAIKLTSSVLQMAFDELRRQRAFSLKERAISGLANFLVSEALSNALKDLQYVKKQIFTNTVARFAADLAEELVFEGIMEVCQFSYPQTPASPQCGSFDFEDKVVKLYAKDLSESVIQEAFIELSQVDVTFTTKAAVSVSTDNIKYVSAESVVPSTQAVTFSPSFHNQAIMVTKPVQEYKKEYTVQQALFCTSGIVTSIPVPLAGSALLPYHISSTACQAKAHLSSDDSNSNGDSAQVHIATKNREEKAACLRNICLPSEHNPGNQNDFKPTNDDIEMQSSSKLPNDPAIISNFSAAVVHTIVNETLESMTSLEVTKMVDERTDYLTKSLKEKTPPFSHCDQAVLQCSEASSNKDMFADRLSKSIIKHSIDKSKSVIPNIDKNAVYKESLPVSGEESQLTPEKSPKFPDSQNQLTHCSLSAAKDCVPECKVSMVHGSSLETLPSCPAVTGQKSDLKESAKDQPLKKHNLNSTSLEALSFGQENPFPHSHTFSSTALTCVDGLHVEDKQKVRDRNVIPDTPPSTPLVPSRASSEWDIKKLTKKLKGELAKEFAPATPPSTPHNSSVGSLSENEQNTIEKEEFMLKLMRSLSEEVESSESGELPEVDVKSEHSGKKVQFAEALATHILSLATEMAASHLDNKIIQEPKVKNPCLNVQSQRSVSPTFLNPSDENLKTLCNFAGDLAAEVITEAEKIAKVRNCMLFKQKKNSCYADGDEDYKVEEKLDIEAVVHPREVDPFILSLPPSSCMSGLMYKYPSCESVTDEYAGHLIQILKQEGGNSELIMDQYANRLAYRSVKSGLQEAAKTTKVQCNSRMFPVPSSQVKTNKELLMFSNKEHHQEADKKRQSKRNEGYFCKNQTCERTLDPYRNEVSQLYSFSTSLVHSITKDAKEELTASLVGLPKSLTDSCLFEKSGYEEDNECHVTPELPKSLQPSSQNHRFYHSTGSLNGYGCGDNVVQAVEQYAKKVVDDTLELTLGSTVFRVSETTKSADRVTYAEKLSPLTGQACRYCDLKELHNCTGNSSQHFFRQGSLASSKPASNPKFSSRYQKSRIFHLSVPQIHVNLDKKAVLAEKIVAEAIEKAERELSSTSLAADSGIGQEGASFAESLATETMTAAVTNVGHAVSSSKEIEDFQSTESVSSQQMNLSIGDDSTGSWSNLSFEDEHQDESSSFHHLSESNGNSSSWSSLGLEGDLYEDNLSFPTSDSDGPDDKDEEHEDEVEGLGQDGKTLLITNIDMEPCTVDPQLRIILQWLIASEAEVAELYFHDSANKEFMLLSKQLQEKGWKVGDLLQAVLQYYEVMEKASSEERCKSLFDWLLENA
UniProt O94916: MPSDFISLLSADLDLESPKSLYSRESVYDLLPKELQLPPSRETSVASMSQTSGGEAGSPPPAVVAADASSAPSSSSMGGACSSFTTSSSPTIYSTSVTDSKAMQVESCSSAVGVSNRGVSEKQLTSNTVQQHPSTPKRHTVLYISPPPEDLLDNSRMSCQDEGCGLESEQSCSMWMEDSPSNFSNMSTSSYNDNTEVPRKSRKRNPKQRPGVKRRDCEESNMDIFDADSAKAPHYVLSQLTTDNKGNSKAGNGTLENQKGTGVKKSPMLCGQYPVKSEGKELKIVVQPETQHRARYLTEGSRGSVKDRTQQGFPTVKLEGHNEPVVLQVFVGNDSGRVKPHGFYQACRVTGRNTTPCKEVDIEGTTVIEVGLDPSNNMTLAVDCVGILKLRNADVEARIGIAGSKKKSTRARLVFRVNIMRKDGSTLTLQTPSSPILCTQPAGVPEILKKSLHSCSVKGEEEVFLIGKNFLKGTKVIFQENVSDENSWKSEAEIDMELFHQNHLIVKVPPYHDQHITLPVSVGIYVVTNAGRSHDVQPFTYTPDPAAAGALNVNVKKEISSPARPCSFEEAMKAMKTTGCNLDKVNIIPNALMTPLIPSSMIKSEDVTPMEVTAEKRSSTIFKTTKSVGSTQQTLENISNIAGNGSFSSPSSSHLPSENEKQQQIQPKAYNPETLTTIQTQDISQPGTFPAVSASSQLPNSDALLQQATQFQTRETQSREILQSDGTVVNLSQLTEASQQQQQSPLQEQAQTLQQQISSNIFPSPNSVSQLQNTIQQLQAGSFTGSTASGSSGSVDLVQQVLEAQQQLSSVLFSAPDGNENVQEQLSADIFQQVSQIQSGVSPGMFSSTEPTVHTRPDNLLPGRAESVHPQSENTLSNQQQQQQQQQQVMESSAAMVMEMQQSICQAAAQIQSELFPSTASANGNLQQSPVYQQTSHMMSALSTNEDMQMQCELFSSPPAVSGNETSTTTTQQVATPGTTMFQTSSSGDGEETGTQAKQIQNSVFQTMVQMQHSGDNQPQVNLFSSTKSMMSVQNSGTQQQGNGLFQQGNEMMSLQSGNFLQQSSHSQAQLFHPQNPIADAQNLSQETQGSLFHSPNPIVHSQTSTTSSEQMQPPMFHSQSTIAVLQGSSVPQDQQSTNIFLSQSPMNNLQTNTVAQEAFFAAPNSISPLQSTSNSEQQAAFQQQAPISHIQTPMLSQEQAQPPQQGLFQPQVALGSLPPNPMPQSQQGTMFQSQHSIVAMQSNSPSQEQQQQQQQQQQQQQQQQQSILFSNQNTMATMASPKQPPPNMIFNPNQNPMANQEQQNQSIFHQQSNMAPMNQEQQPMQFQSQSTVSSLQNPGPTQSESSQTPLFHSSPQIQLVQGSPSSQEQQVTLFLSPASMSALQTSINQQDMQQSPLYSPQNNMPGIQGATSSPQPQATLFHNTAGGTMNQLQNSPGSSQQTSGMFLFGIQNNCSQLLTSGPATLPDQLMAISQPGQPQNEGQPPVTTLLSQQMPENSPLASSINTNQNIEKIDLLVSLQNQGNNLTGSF

In article PMC11937301:

Biological target: HA-XIAP (X-linked inhibitor of apoptosis protein) (human) (UniProt P98170)
Experiment: affinity purification with mass spectrometry; ectopic overexpression of XIAP in UMUC3 cells, pull-down with anti-HA beads, IP-MS; hits intersected with iTRAQ data of XIAP knockdown

binding | Molecule
binds | AKAP11 (from UniProt Q9UKA4 1-1901)
binds | NFAT5 (from UniProt O94916 1-1531)
binds | LETMD1 (protein, UniProt Q6P1Q0 1-360) MALSRVCWARSAVWGSAVTPGHFVTRRLQLGRSGLAWGAPRSSKLHLSPKADVKNLMSYVVTKTKAINGKYHRFLGRHFPRFYVLYTIFMKGLQMLWADAKKARRIKTNMWKHNIKFHQLPYREMEHLRQFRQDVTKCLFLGIISIPPFANYLVFLLMYLFPRQLLIRHFWTPKQQTDFLDIYHAFRKQSHPEIISYLEKVIPLISDAGLRWRLTDLCTKIQRGTHPAIHDILALRECFSNHPLGMNQLQALHVKALSRAMLLTSYLPPPLLRHRLKTHTTVIHQLDKALAKLGIGQLTAQEVKSACYLRGLNSTHIGEDRCRTWLGEWLQISCSLKEAELSLLLHNVVLLSTNYLGTRR

These are yes or no findings as the source states them, for the method shown. In cells and extracts the contact can be indirect. These calls come from enrichment with a bait or labelling near it, and not all partners need be listed.
